Experimental data as given in PubChem BioAssay AID330 (DTP/NCI, 2004).
The list shows only some results of the screen, not a fair sample: it is rich in T/C values a quarter to a half above the control, in often repeated tests (any T/C) and in doses without a T/C. Other doses and runs of a compound stand elsewhere. T/C: endpoint of the treated group in % of that of the vehicle group. Some doses have a count of surviving animals in place of a T/C: the source files T/C as zero there, which appears to mark a toxic dose or a test without result, not a measured value. Some doses without a T/C left all or most animals alive at the check, yet need not have been tolerated: survival well below the control is almost never listed, so the zero probably covers shortened survival too. Survivors were counted at the toxicity check, usually on the fifth day, unless a day is given; later deaths do not show. Schedules are NCI's codes, read here as Q, the interval in days (D) or hours (H), X, the number of doses. Some entries hold several experiments; their values stand side by side, smallest first. For survival time, this PubChem deposit counts one and a half times the control or more as active, and values a quarter to a half above the control carry no call in these data; other NCI protocols may use other cut-offs.

System: P388 leukemia ip, CD2F1 mice, survival T/C
Assay: NCI In Vivo Anticancer Drug Screen. Data for tumor model P388 Leukemia (intraperitoneal) in CD2F1 (CDF1) mice
Conditions: T/C endpoint: median survival time, higher T/C = longer survival
[1] = dose: 240.0 mg/kg/injection, schedule: Q01DX005 (ip), vehicle: Klucel (hydroxypropylcellulose) (HPC)

## CCCCCCCCCCCCCCC(O)C(=O)O (configuration not stated)
dose: 50.0 mg/kg/injection, schedule: Q01DX009 (ip), vehicle: saline with Tween-80
  survivor count: 6 of 6
dose: 100.0 mg/kg/injection, schedule: Q01DX009 (ip), vehicle: saline with Tween-80
  survivor count: 6 of 6

## COc1ccc(C2OC3=C(Nc4ccc(Cl)cc4N3)C2=O)c(OC)c1 (configuration not stated)
dose: 7.5 mg/kg/injection, schedule: Q01DX005 (ip), vehicle: Klucel (hydroxypropylcellulose) (HPC)
  survivor count: 6 of 6
dose: 15.0 mg/kg/injection, schedule: Q01DX005 (ip), vehicle: Klucel (hydroxypropylcellulose) (HPC)
  survivor count: 6 of 6
dose: 30.0 mg/kg/injection, schedule: Q01DX005 (ip), vehicle: Klucel (hydroxypropylcellulose) (HPC)
  survivor count: 6 of 6
dose: 60.0 mg/kg/injection, schedule: Q01DX005 (ip), vehicle: Klucel (hydroxypropylcellulose) (HPC)
  survivor count: 5 of 6 and 6 of 6
[1]
  survivor count: 3 of 6

## CCCCCCCCCCCCCCCc1c(NC(C)(CC(C)(C)O)[P+](=O)O)c(=O)n(C)n1C (configuration not stated)
dose: 200.0 mg/kg/injection, schedule: Q01DX009 (ip), vehicle: saline
  survivor count: 3 of 6

## CC(/C=N\Nc1ccc(Cl)c(Cl)c1)=N/NC(=O)C[n+]1ccccc1
dose: 200.0 mg/kg/injection, schedule: Q04DX002 (ip), vehicle: saline
  survivor count: 6 of 6
dose: 400.0 mg/kg/injection, schedule: Q04DX002 (ip), vehicle: saline
  survivor count: 0 of 6

## CC1CNC(=O)NC1=O (configuration not stated)
dose: 200.0 mg/kg/injection, schedule: Q01DX009 (ip), vehicle: saline with Tween-80
  survivor count: 6 of 6

## NC(=NCc1ccccc1)c1ccc(N=C(N)c2ccc(C(N)=Nc3ccc(C(N)=NCc4ccccc4)cc3)cc2)cc1
dose: 10.0 mg/kg/injection, schedule: Q01DX009 (ip), vehicle: saline sonified
  T/C: 136 % of control
dose: 15.0 mg/kg/injection, schedule: Q01DX009 (ip), vehicle: saline
  T/C: 136 % of control
dose: 20.0 mg/kg/injection, schedule: Q01DX009 (ip), vehicle: saline sonified
  survivor count: 0 of 6
dose: 40.0 mg/kg/injection, schedule: Q04DX003 (ip), vehicle: saline with Tween-80
  survivor count: 0 of 6

## O=c1[nH]cc(N=Cc2cccc3c2OCO3)c(=O)[nH]1
dose: 400.0 mg/kg/injection, schedule: Q01DX001 (ip), vehicle: suspension in saline
  survivor count: 6 of 6

## CCCn1c(O)c(C(=O)CC)sc1=S
[1]
  survivor count: 0 of 6
